Source: the supplement of paper PMC12819154, “High-throughput peptide-centric local stability assay extends protein–ligand identification to membrane proteins, tissues and bacteria” (Nature Structural & Molecular Biology, 2025)
The list shows a part of the results. Most entries show no effect beyond the scatter of the controls.

Amino acid sequences for entries named in this document (tags omitted). A change or cut given only in a name is not applied to a line headed by its entry.
UniProt A0FGR8: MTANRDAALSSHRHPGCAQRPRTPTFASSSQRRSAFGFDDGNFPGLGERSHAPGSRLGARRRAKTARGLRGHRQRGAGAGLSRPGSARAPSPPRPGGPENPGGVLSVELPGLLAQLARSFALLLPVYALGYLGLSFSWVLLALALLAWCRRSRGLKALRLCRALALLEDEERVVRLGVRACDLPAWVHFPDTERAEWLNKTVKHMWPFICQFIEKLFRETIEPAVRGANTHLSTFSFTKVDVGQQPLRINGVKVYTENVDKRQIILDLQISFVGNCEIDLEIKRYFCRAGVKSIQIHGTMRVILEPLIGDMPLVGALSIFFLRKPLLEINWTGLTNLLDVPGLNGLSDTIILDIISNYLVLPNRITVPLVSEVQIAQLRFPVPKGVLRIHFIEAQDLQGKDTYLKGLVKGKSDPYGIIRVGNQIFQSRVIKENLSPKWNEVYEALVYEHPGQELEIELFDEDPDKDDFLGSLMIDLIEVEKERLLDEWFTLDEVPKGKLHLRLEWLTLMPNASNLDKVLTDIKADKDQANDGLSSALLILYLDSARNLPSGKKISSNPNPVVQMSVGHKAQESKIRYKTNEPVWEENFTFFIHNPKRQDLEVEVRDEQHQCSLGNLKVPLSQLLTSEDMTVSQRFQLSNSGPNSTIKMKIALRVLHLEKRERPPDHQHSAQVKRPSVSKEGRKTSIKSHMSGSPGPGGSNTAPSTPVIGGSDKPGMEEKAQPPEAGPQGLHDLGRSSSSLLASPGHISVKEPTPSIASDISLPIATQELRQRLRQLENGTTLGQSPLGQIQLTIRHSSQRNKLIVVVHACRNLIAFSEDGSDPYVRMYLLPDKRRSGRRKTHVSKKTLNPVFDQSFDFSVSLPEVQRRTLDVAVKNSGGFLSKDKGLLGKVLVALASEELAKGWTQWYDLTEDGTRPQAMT

compound: Cc1nc(Nc2ncc(C(=O)Nc3c(C)cccc3Cl)s2)cc(N2CCN(CCO)CC2)n1 [dasatinib]; test: log2 fold change of tryptic peptide abundance, ligand vs vehicle (limited proteolysis) (log2 ratio); higher = more trypsin-susceptible (destabilized); settings: ligand concentration: 5 uM; sample: K562 cleared lysate

Target | log2 fold change
UniProt A0FGR8 (peptide sequence: SSSSLLASPGHISVK, peptide start residue: 736) | 0.174
A0A096LP55 (peptide sequence: EQCEQLEKCVKAR, peptide start residue: 35), A0A096LP55 | -0.614
A0AV96 (peptide sequence: GSYLGGYSAGR, peptide start residue: 395) | 0.198
